# Data taken from PMC7026407.
# These are yes or no findings as the source states them, for the method shown.
# What was measured:
# IGFBP-7 [1] = molecular target: T1, IGFBP-7 (UniProt Q16270); assay: SPR; IGF binding protein or Fc fusion amine-coupled to a CM4 chip, growth factor as analyte; Biacore T100/T200; HBS-P, with 0.2 mg/ml BSA or 0.65 M NaCl to reduce non-specific binding; 25 °C; 1:1 binding fit; both purified
# T1 sequence: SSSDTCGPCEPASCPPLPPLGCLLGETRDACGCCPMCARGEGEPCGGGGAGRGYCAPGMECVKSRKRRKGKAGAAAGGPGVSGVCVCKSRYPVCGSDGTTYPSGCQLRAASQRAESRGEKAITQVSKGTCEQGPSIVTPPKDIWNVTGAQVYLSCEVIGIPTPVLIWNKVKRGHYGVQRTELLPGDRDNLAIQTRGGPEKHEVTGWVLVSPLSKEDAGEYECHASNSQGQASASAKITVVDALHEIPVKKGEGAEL
# IGFBP-7 [2] = molecular target: T1, IGFBP-7; assay: SPR; IGF binding protein or Fc fusion amine-coupled to a CM4 chip, growth factor as analyte; Biacore T100 or T200, HBS-P, BSA (0.2 mg/ml) or NaCl (0.65 M final) to reduce non-specific binding, 25 °C; 1:1 binding analysis; both purified
Substance,binding (IGFBP-7 [1]),binding (IGFBP-7 [2])
VEGF (ligand),no binding,
VEGF-A 165 (ligand),,no binding
